Results reported in paper doi:10.1101/2020.05.13.094102.
Like-named read-outs stand apart in the source and are kept apart here. Results are given in words; binding and its absence hold for the method and conditions named. Some entries that bind do so weakly or less than the wild type.

Chains of the proteins cited; added tags and fusions are not shown. Residues count along the entry.
UniProt P36544, residues 23-502: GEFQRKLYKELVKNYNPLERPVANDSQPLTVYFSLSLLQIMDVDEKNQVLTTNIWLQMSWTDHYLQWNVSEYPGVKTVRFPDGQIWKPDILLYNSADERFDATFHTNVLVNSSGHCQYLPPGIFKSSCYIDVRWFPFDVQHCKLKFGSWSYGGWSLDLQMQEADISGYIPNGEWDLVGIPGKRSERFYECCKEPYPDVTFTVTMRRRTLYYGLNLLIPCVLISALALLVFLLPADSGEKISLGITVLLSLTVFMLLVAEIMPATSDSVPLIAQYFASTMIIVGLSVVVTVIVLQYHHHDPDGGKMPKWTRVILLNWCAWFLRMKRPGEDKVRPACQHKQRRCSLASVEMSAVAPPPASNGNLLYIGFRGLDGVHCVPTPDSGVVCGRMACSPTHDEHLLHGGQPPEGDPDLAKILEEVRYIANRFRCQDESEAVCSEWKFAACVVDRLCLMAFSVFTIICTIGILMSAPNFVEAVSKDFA
UniProt P17787, residues 26-502: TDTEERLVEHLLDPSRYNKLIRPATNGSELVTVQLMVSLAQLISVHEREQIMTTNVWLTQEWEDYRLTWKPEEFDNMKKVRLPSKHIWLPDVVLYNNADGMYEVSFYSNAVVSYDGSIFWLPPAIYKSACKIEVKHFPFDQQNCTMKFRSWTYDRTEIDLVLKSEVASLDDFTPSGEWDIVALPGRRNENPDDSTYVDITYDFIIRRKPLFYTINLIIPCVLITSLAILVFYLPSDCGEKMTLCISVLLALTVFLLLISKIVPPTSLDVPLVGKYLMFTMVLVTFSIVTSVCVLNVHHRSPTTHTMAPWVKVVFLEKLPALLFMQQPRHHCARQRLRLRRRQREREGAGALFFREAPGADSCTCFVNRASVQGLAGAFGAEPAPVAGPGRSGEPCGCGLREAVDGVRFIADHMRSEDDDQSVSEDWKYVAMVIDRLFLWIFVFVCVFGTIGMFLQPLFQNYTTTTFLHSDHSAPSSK
UniProt Q07812: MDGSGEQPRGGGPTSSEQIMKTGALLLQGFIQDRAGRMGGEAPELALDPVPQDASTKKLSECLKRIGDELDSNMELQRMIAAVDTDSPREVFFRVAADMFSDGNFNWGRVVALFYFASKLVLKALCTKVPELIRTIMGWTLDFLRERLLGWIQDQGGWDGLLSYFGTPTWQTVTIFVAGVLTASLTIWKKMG

Columns and labels:
Test in all cases: ELISA
[1] = target: α7 nicotinic acetylcholine receptor subunit (human (endogenous in U373)) (UniProt P36544)
[2] = target: α7 nicotinic acetylcholine receptor subunit (human (endogenous in U373)) (UniProt P36544); remark: listed apart in the source
[3] = target: β2 nicotinic acetylcholine receptor subunit (human (endogenous in U373)) (UniProt P17787)

Measured: binding

Bax (from UniProt Q07812 1-192)
binds: all assays above
